Results: article PMC6082945
No constants are given. Whether binding was seen depends on the method and setting. In cells and extracts the contact can be indirect. Some results given as binding are weak or reduced against the parent protein; the word gives no strength.

Sequences of proteins named here, by UniProt entry; tags and fusion partners are left off.
UniProt P29351: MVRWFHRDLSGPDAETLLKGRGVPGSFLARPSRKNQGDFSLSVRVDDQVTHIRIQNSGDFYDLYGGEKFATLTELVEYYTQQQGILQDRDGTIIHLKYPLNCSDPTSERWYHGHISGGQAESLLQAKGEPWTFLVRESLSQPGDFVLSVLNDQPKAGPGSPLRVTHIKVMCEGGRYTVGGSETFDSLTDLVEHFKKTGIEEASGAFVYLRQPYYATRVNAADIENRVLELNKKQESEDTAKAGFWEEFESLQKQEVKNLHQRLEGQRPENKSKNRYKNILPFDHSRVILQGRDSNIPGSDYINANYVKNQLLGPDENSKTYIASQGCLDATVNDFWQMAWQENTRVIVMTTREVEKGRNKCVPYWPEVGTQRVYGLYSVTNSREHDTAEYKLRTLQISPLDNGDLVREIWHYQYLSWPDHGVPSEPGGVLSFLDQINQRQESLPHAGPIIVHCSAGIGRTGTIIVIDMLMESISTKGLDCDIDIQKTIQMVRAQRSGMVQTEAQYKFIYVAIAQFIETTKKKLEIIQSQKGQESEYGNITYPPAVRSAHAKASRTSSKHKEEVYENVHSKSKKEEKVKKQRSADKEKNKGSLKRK
UniProt P41241: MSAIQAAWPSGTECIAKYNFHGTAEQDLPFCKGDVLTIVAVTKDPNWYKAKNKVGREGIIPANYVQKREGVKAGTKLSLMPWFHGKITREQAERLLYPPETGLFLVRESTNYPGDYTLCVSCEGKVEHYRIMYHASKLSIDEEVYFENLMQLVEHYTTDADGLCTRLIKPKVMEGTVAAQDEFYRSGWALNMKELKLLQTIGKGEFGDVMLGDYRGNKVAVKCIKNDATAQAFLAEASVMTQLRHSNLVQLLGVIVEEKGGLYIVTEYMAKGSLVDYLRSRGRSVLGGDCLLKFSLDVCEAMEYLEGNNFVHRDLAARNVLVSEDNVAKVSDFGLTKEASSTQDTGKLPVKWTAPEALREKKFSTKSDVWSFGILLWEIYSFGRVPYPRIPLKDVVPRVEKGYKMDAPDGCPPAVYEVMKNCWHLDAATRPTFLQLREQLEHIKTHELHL

What was measured:
[1] = molecular target: protein phosphatase SHP-1 (mouse (endogenous in BMMCs)) (UniProt P29351); test: co-IP; endogenous proteins of nonactivated or antigen-activated (250 ng/ml) BMMCs; lysis on ice in 25 mM Tris-HCl pH 7.5, 140 mM NaCl, 1 mM Na3VO4, 2 mM EDTA, protease inhibitors, 0.5% Triton X-100; antibodies to LYN, CSK or SHP-1 prebound to UltraLink-immobilized protein A; immunoblot
[2] = molecular target: C-terminal Src kinase (CSK) (mouse (endogenous in BMMCs)) (UniProt P41241); test: as above

binding [1]	binding [2]	Substance
binds		C-terminal Src kinase (CSK) (from UniProt P41241 1-450) (enzyme)
	binds	protein phosphatase SHP-1 (from UniProt P29351 1-595) (enzyme)
